From PubChem BioAssay AID445 (National Center for Advancing Translational Sciences (NCATS), 2006) come the findings set out here.

The list shows a part of the results. Shown are side measurements of this screen, not its main read-out; they come without a call. The list favours compounds with an active or inconclusive main result. The note in brackets gives the kind of curve behind each potency; many fits are weak.

The nature of this assay: IkB Signaling. Particulars: ABC-DLBCL IkBa-CBG/CBR dual luciferase ratio (green luciferase fused to IkBa over red control in OCI-Ly3 lymphoma cells), 4 h; measured here: control luc red channel unless noted. In outline:
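Luminescence ratio of IκBα-fused green versus native red beetle luciferase in OCI-Ly3 cells, 4 h post-doxycycline with compound; red signal alone, scaled from basal (0%) to zero light (-100%), flagged nonspecific or cytotoxic effects.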
With `COc1ccccc1NC(=O)c1cc(S(=O)(=O)N2CCN(c3ccccc3Cl)CC2)ccc1F`, the AC50 (usually the concentration at which the activity in the assay is half-maximal) is 3.16 µM [falling, full curve].

`O=C(CN1CCN(c2nc(-c3ccccc3)cs2)CC1)NCc1ccc2c(c1)OCO2`: the concentration at half-maximal activity (AC50) is 25.1 µM [falling, partial curve].

Turning to `CCOC(=O)N1CCN(c2ccc(C(=O)c3ccccc3)cc2F)CC1`, the half-maximal activity concentration (AC50) was 15.8 µM [falling, partial curve].

On to `Cc1ccccc1Cn1c2ccccc2c2cnn(CC(=O)NC(C)CCc3ccccc3)c(=O)c21` (configuration not stated), for which the concentration at half-maximal activity (AC50) is 10 µM [falling, partial curve].

Regarding `CCc1ccc2oc(C(=O)Nc3c(C)n(C)n(-c4ccccc4)c3=O)cc(=O)c2c1`, the half-maximal activity concentration (AC50) was 0.0158 µM [rising, full curve, poor fit].

With `COC(=O)c1ccc(NC(=O)CN(CCc2ccccc2)S(=O)(=O)c2ccc(OC)cc2)cc1`, the half-maximal activity concentration (AC50) was 7.94 µM [falling, full curve, poor fit].

For `CN(Cc1ccccc1)C(=O)CCCn1c(=O)[nH]c2cc(Cl)ccc2c1=O`, the concentration at half-maximal activity (AC50) was 12.6 µM [falling, partial curve].

On to `COc1cccc(-c2nc3cc(C)ccc3o2)c1`, for which the AC50 was 20 µM [falling, single point].

In the case of `CCN1CCN(c2cc(C)c3cc(NC(=O)c4cccc(Cl)c4)ccc3n2)CC1`, the AC50 is 15.8 µM [falling, partial curve].

In the case of `COc1ccc(C(=O)Nc2ccc(C)cn2)c(OC)c1`, the AC50 was 10 µM [falling, partial curve].

`Cc1ccc(NC(=O)c2cnc(N3CCCCC3)c3ccccc23)cc1Cl`: the AC50 is 10 µM [falling, partial curve].

Consider `COC(=O)c1scc(-c2ccc(C)cc2)c1S(=O)(=O)Nc1cccc(Cl)c1C`, for which the AC50 was 15.8 µM [falling, single point].

Take `Cc1ccc(OCCn2cc(C(=O)c3ccco3)c3ccccc32)cc1C`: the AC50 was 2.51 µM [falling, partial curve].

Turning to `O=C(CCCCn1c(=O)c2ccccc2n(CC(=O)Nc2ccccc2)c1=O)NCc1ccccc1Cl`, the half-maximal activity concentration (AC50) is 2.51 µM [falling, full curve, poor fit].

Consider `CCN(CC)CCCNC(=O)C1CCN(S(C)(=O)=O)CC1`, for which the half-maximal activity concentration (AC50) is 7.94 µM [rising, single point].

On to `O=C1C(Cl)=C(Nc2ccccc2O)C(=O)N1c1ccccc1`, for which the AC50 was 0.0158 µM [falling, full curve].

Consider `Cc1oc(-c2ccc(C(=O)Nc3cccc(C(F)(F)F)c3)cc2)nc1CSc1ccccc1`, for which the half-maximal activity concentration (AC50) is 10 µM [falling, partial curve].

For the compound `COc1ccc(-c2c(C#N)c(SCC(=O)Nc3ccc(Br)cc3)nc(C)c2C(=O)Nc2ccccc2)cc1`, the concentration at half-maximal activity (AC50) is 3.16 µM [falling, full curve, poor fit].

Consider `O=C(CN(c1cc(C(F)(F)F)ccc1Cl)S(=O)(=O)c1ccccc1)NCCc1ccccc1`, for which the half-maximal activity concentration (AC50) was 25.1 µM [falling, partial curve].

With `COC(=O)c1ccccc1NC(=O)c1cc2c(s1)-c1ccccc1OC2`, the concentration at half-maximal activity (AC50) is 0.398 µM [falling, full curve].

For the compound `O=C(CSc1nc(-c2ccccc2)c2ccccc2n1)Nc1ccc(F)cc1`, the concentration at half-maximal activity (AC50) was 1.58 µM [falling, full curve, poor fit].

As to `COc1cc(C(=O)Nc2nccs2)ccc1OCc1c(C)noc1C`, the AC50 is 31.6 µM [falling, partial curve].

In the case of `Cc1cc(C)c(S(=O)(=O)NCCc2cc3ccc(C)cc3[nH]c2=O)c(C)c1`, the AC50 was 12.6 µM [falling, partial curve].

As to `CC1=C(C(=O)N2CCCCC2)C(c2cccc(Cl)c2)n2c(nc3ccccc32)N1` (configuration not stated), the AC50 is 39.8 µM [falling, single point].

Regarding `O=C(CCCc1nc(-c2ccccc2)no1)Nc1cc(C(F)(F)F)cc(C(F)(F)F)c1`, the concentration at half-maximal activity (AC50) was 25.1 µM [falling, partial curve].

As for `Cc1ccc(-c2cc(-c3ccccc3Cl)[nH]n2)c(O)c1`, the AC50 was 15.8 µM [falling, partial curve].

For `O=C(Nc1nnc(S(=O)(=O)N2CCCCC2)s1)c1ccc(F)cc1`, the half-maximal activity concentration (AC50) was 10 µM [rising, partial curve, poor fit].

In the case of `Cc1sc(-n2cccc2)c(C(C)NC(=O)Nc2ccccc2Cl)c1C` (configuration not stated), the concentration at half-maximal activity (AC50) was 15.8 µM [falling, partial curve].

In the case of `C=CCn1c(Cc2cccs2)nnc1SCC(=O)Nc1ccc(C(=O)OCC)cc1`, the AC50 is 15.8 µM [falling, partial curve].

On to `Cc1cccc(-c2nc3scc(CCNS(=O)(=O)c4ccc(F)cc4C)n3n2)c1`, for which the concentration at half-maximal activity (AC50) was 10 µM [falling, partial curve].

On to `Cc1ccc(NC(=O)c2cc(S(=O)(=O)NCCC3=CCCCC3)ccc2F)cc1C`, for which the AC50 was 20 µM [falling, partial curve].

For the compound `CCc1ccc(NC(=O)c2sc3nc(C)c(C(=O)Nc4ccc(C)cc4C)c(-c4ccco4)c3c2N)cc1`, the AC50 is 0.316 µM [falling, full curve].

With `COc1ccc(Nc2sc(C(=O)c3ccccc3)c(N)c2C(=O)Nc2cc(C)ccc2C)c(OC)c1`, the half-maximal activity concentration (AC50) is 12.6 µM [falling, partial curve].

Regarding `Cc1ccc(Cl)cc1N(CC(=O)N1CCCCCC1)S(C)(=O)=O`, the half-maximal activity concentration (AC50) was 15.8 µM [falling, partial curve].

Turning to `Cc1c(NC(=O)c2cc(-c3ccc(Br)cc3)on2)c(=O)n(-c2ccccc2)n1C`, the AC50 is 31.6 µM [falling, single point].

Regarding `Cc1ccc(-c2nc3cnccn3c2Nc2ccc3c(c2)OCCO3)o1`, the half-maximal activity concentration (AC50) is 3.16 µM [rising, partial curve].

As to `Cc1ccc(S(=O)(=O)c2nnn3c2nc(N2CCC(C)CC2)c2cc(Cl)ccc23)cc1C`, the half-maximal activity concentration (AC50) is 0.0794 µM [falling, full curve, poor fit].

For the compound `COc1ccc(NC(=O)c2ccc3c(c2)n(C)c(=O)n3C)cc1`, the AC50 is 20 µM [rising, partial curve] [measured here: IkB-luc green channel].

As to `CCOC(=O)Nc1nnc(-c2cccc(OC)c2)s1`, the concentration at half-maximal activity (AC50) is 3.98 µM [rising, partial curve].

In the case of `Cc1nn2c(=O)cc(COC(=O)c3ccc(NC(=O)COc4ccc(Cl)cc4)cc3)nc2s1`, the AC50 is 0.00631 µM [falling, full curve, poor fit].

Regarding `Cc1ccccc1Nc1c(-c2c[nH]c3ccccc23)nc2ccccn12`, the AC50 is 0.0631 µM [falling, full curve].

As to `Cc1ccc(-c2csc(=S)n2CC(=O)OCC(=O)NCc2ccco2)cc1`, the concentration at half-maximal activity (AC50) is 15.8 µM [falling, single point].

Take `CCOc1ccc(CCNc2ncnc3onc(-c4ccc(Cl)cc4)c23)cc1`: the AC50 is 31.6 µM [falling, partial curve].

For the compound `O=C(Cn1nnc2sc(-c3ccccc3)cc2c1=O)Nc1cccc(C(F)(F)F)c1`, the AC50 is 20 µM [falling, single point].

On to `O=c1c2oc3ccccc3c2n(Cc2ccccc2)c(=O)n1Cc1ccco1`, for which the AC50 was 12.6 µM [falling, single point].

`N=c1oc2c3c4c(cc2cc1C(=O)Nc1ccccc1)CCCN4CCC3`: the concentration at half-maximal activity (AC50) was 0.0794 µM [falling, full curve].

As to `CCOC(=O)c1cc(-c2ccccc2)n(CCC(=O)Nc2cc(OCC)ccc2OCC)c1C`, the concentration at half-maximal activity (AC50) was 1.26 µM [rising, full curve].

Regarding `COc1ccc(NC(=O)c2ccc(NC(=O)CCS(=O)(=O)c3cccs3)cc2)cc1OC`, the concentration at half-maximal activity (AC50) was 10 µM [falling, partial curve].

With `COCCn1nnnc1C(c1cc2cccc(C)c2[nH]c1=O)N1CCN(c2ccccc2F)CC1` (configuration not stated), the AC50 was 25.1 µM [falling, partial curve].

Take `CCCCCn1c(CCCNC(=O)c2cccc(C)c2)nc2ccccc21`: the concentration at half-maximal activity (AC50) was 15.8 µM [falling, partial curve].

With `CCn1c(NCc2ccc(OC)c(OC)c2)nc2ccccc21`, the AC50 is 0.0631 µM [falling, full curve].

As to `CCOc1ccccc1CNC(=O)c1ccc2c(c1)sc1nc(-c3ccccc3)cn12`, the AC50 is 0.251 µM [falling, full curve, poor fit].

Regarding `Cc1ccc(Cl)cc1N1CCN(CCCNc2ncnc3onc(-c4ccc(Cl)cc4)c23)CC1`, the AC50 is 39.8 µM [falling, single point].

As to `C/C(=C\c1ccc(C(=O)O)cc1)c1ccc2c(c1)C(C)(C)CCC2(C)C`, the AC50 was 6.31e-05 µM [rising, full curve, poor fit].

Consider `CC(C)CCNC(=O)NC(=O)COc1ccccc1C#N`, for which the AC50 was 0.158 µM [falling, full curve].

For the compound `COc1ccc(C2=NS(=O)(=O)N(C)C(C(=O)NC(C)c3ccccc3)=C2)cc1` (configuration not stated), the AC50 was 12.6 µM [falling, partial curve].

For the compound `CCC(C)(C)n1nnnc1CN(Cc1cccs1)Cc1cc2cc(OC)ccc2[nH]c1=O`, the AC50 was 31.6 µM [falling, single point].

With `O=C(c1ccco1)N1CCN(c2nc(C3CC3)nc3sc4c(c23)CCCC4)CC1`, the AC50 is 31.6 µM [falling, partial curve].

As for `CCN(C(=O)CSc1nc2ccccc2n1CC(=O)N(C)C1CCCCC1)c1ccccc1`, the concentration at half-maximal activity (AC50) is 31.6 µM [falling, single point].

For the compound `Cc1ccc(S(=O)(=O)N(C)CCCC(=O)NCc2ccc3c(c2)OCO3)cc1`, the AC50 is 15.8 µM [falling, partial curve].

As for `CCc1ccc(C(=O)c2cn(CC(=O)Nc3cc(OC)ccc3OC)c3ccc(Cl)cc3c2=O)cc1`, the AC50 is 15.8 µM [falling, partial curve].

In the case of `COc1ccc(-c2cc3nc(C)c(CCC(=O)N4CCCCC4)c(C)n3n2)c(OC)c1`, the half-maximal activity concentration (AC50) is 1.26 µM [falling, full curve].
